According to PubChem BioAssay AID493014 (National Center for Advancing Translational Sciences (NCATS), 2011):
Some of the results follow. These are further read-outs of the screen, such as a control signal, another cell line or another target. No call is given for them. The list favours compounds with an active or inconclusive main result. Potencies come from curve fits of mixed quality, noted in brackets.

Assay: qHTS Assay to Find Inhibitors of Chronic Active B-Cell Receptor Signaling
Settings: ABC-DLBCL IkBa-CBG/CBR reporter, luminescence ratio (green luciferase fused to IkBa over red control in TMD8 lymphoma cells), 4 h
How it was run: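 TMD8 human ABC-DLBCL cells with doxycycline-inducible IκBα–green luciferase fusion and unfused red luciferase, in 0.5% FBS medium; compounds up to 46 uM, 4 h at 37C. Green/red luminescence ratio, filter-overlap corrected, fitted to concentration-response curves.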

[1] = measured here: CBR red luminescence, cell number

Question: For COc1cccc(C2CC(C(F)(F)F)n3ncc(C(=O)Nc4c(C)n(C)n(-c5ccccc5)c4=O)c3N2)c1 (configuration not stated), which AC50 [1] is on record?
Answer: The AC50 was 14.6 µM [falling, single point].

Question: With CCC(=O)N1CCN(c2ccccc2NC(=O)COc2ccc(C(C)C)cc2)CC1 as the molecule, how does the AC50 [1] read?
Answer: Its AC50 is 25.1 µM [falling, single point].

Question: With COC(=O)/C(=C\Nc1ccccc1)NC(=O)c1ccc(Cl)cc1Cl as the molecule, how does the AC50 [1] read?
Answer: Its AC50 is 25.9 µM [rising, single point].

Question: Which AC50 [1] does the source give for Cc1ccc(C)c(C(=O)C(C)OC(=O)c2cccn2C)c1 (configuration not stated) here?
Answer: The AC50 was 8.91 µM [rising, partial curve, poor fit].

Question: With Cc1ccc(O)c(N=CC2=C(O)c3ccccc3C2=O)c1 as the molecule, how does the AC50 [1] read?
Answer: The AC50 was 17.8 µM [falling, single point].

Question: For CC(C)(C)c1ccc(OCc2cnc(Cl)s2)cc1, which AC50 [1] is on record?
Answer: The AC50 was 28.2 µM [rising, partial curve, poor fit].

Question: Which AC50 [1] does the source give for Cc1ccccc1C(=O)NC(=S)NCC1CCCO1 (configuration not stated) here?
Answer: Its AC50 is 3.55 µM [falling, single point].

Question: With CCOc1ccc(C(O)Cn2c(=N)n(CCN3CCCCC3)c3ccccc32)cc1 (configuration not stated) as the molecule, how does the AC50 [1] read?
Answer: Its AC50 is 29.1 µM [falling, partial curve, poor fit].

Question: For COc1cccc(/C=N/NC(=O)c2ccoc2C)c1O, which AC50 [1] is on record?
Answer: The AC50 was 5.62 µM [falling, partial curve].

Question: For COc1cccc(-c2nnc(NC(=O)c3ccccc3Br)o2)c1, which AC50 [1] is on record?
Answer: Its AC50 is 8.91 µM [falling, partial curve].

Question: Which AC50 [1] does the source give for COCC(=O)N1CCCC(CNS(=O)(=O)c2ccc(OC)cc2)C1 (configuration not stated) here?
Answer: The AC50 was 8.91 µM [rising, partial curve, poor fit].

Question: For COc1cc(C(=O)NCc2cn3cccc(C)c3n2)cc(OC)c1OC, which AC50 [1] is on record?
Answer: Its AC50 is 0.651 µM [rising, partial curve, poor fit].

Question: Which AC50 [1] does the source give for Cc1cccc(OCC(=O)N(Cc2ccco2)C2CCS(=O)(=O)C2)c1C (configuration not stated) here?
Answer: Its AC50 is 17.8 µM [falling, partial curve, poor fit].

Question: With S=C1SCN(CC2CC2)CN1CC1CC1 as the molecule, how does the AC50 [1] read?
Answer: The AC50 was 8.91 µM [rising, partial curve, poor fit].

Question: Which AC50 [1] does the source give for C=CC[n+]1c(/C=C2\C=Cc3cc(C)ccc3N2CC)ccc2ccccc21 here?
Answer: Its AC50 is 28.2 µM [rising, single point].

Question: With O=C(COc1cc(O)c2c(=O)cc(-c3ccccc3)oc2c1)c1ccc(F)cc1 as the molecule, how does the AC50 [1] read?
Answer: The AC50 was 35.5 µM [rising, single point].

Question: Which AC50 [1] does the source give for Cc1ccsc1C(=O)NCc1ccc(F)cc1 here?
Answer: The AC50 was 15.8 µM [falling, single point].

Question: Which AC50 [1] does the source give for CCCCOP(=O)(c1ccc(N(C)C)cc1)C(O)c1ccc(OC)c(OC)c1 (configuration not stated) here?
Answer: Its AC50 is 22.4 µM [rising, single point].

Question: Which AC50 [1] does the source give for Cc1c(C)c2c(OCC(=O)N[C@@H](C(=O)O)c3ccccc3)cc3c(c2oc1=O)CCC(C)(C)O3 here?
Answer: The AC50 was 12.6 µM [falling, partial curve].

Question: With COc1ccc(NCc2nc3ccccc3n2CCOc2ccccc2)cc1 as the molecule, how does the AC50 [1] read?
Answer: Its AC50 is 0.461 µM [falling, partial curve, poor fit].

Question: With Cc1ccccc1S(=O)Cc1ccc(C(=O)N2CCN(C(=O)c3ccco3)CC2)o1 (configuration not stated) as the molecule, how does the AC50 [1] read?
Answer: Its AC50 is 15.8 µM [falling, partial curve, poor fit].

Question: Which AC50 [1] does the source give for COc1ccc(Cl)cc1NC(=O)COc1cccc(-n2cnnn2)c1 here?
Answer: Its AC50 is 7.31 µM [rising, partial curve, poor fit].

Question: With CC(C)CN1C(=O)C(=Nc2cccnc2)c2ccccc21 as the molecule, how does the AC50 [1] read?
Answer: Its AC50 is 35.5 µM [rising, single point].

Question: For Cc1occc1C(=O)Nc1ccc2c(c1)CCC2, which AC50 [1] is on record?
Answer: Its AC50 is 2.59 µM [falling, partial curve].

Question: Which AC50 [1] does the source give for Cc1ccc(N(CC(=O)NCC2CCCO2)C(=O)CCC(=O)Nc2nccs2)cc1 (configuration not stated) here?
Answer: Its AC50 is 10 µM [falling, partial curve, poor fit].

Question: Which AC50 [1] does the source give for CC(C)(C)OC(=O)C[C@@H]1C/C=C\C[C@@H](CC(=O)N[C@@H](CO)Cc2ccccc2)C(=O)N2CCC[C@@H]2COC1=O here?
Answer: Its AC50 is 23.1 µM [rising, single point].

Question: With O=C(O)C/C(=C\c1ccc(N2CCOCC2)c([N+](=O)[O-])c1)c1nc2ccccc2s1 as the molecule, how does the AC50 [1] read?
Answer: The AC50 was 20 µM [rising, partial curve, poor fit].

Question: With CCOC(=O)N1CCN(C(=O)c2ccc(C)c(S(=O)(=O)N3CCCCC3)c2)CC1 as the molecule, how does the AC50 [1] read?
Answer: The AC50 was 17.8 µM [falling, single point].

Question: With Cc1ccc(OCCSc2nc3ccccc3n2CC(=O)O)c(C(C)C)c1 as the molecule, how does the AC50 [1] read?
Answer: The AC50 was 17.8 µM [rising, partial curve].

Question: With Cc1cc(S(=O)(=O)N2CCN=C2c2ccccc2)c(C)cc1Cl as the molecule, how does the AC50 [1] read?
Answer: The AC50 was 18.4 µM [rising, single point].

Question: For CCOC(=O)c1cnn(-c2ccc(NS(=O)(=O)c3ccc(Cl)cc3)cc2)c1C(F)(F)F, which AC50 [1] is on record?
Answer: The AC50 was 5.01 µM [falling, full curve, poor fit].

Question: With Clc1ccc(SCCn2ccnc2)cc1 as the molecule, how does the AC50 [1] read?
Answer: The AC50 was 11.2 µM [rising, partial curve, poor fit].

Question: For CC(C)c1nc(SCC(=O)N2CC(=O)Nc3ccccc32)c2ccccc2n1, which AC50 [1] is on record?
Answer: Its AC50 is 20 µM [falling, partial curve, poor fit].

Question: With COc1ccccc1C(=O)Oc1ccccc1C(=O)Nc1ccccc1 as the molecule, how does the AC50 [1] read?
Answer: The AC50 was 12.6 µM [falling, partial curve].

Question: With CS(=O)(=O)N(CC(=O)NC1CCCC1)c1ccc2c(c1)OCCO2 as the molecule, how does the AC50 [1] read?
Answer: The AC50 was 0.651 µM [falling, full curve, poor fit].

Question: With CN(C)S(=O)(=O)c1c(Cl)cccc1Cl as the molecule, how does the AC50 [1] read?
Answer: The AC50 was 2.91 µM [rising, full curve, poor fit].

Question: With O=C(Nc1nc2ccc([N+](=O)[O-])cc2s1)c1ccco1 as the molecule, how does the AC50 [1] read?
Answer: The AC50 was 0.708 µM [falling, full curve].

Question: Which AC50 [1] does the source give for O=S(=O)(Nc1cccc2cccnc12)c1ccccc1 here?
Answer: Its AC50 is 3.55 µM [rising, full curve, poor fit].

Question: And the AC50 (measured here: IkBa-CBG green luminescence)?
Answer: The AC50 was 3.55 µM [falling, full curve].

Question: For Nc1c(N=Nc2ccccc2F)c(=O)[nH]n1-c1ccccc1, which AC50 [1] is on record?
Answer: The AC50 was 1.78 µM [falling, full curve].

Question: Which AC50 [1] does the source give for O=C(Nc1ccc2c(c1)CCCN2C(=O)c1cccs1)c1c(F)cccc1F here?
Answer: The AC50 was 8.91 µM [falling, partial curve, poor fit].

Question: Which AC50 [1] does the source give for COc1ccc(-c2noc(CSc3nnc(-c4ccncc4)n3-c3ccc(F)cc3)n2)cc1OC here?
Answer: The AC50 was 0.00517 µM [rising, full curve, poor fit].
